No constants are given. Whether binding was seen depends on the method and setting. In cells and extracts the contact can be indirect. Some binding calls cover weakened binding; strength is not graded here. For part of these data: Tags and fused reporters may be left off the sequences shown. Values belong to the molecule of their own block, whether it stands above or below them.
How the values were obtained:
[1] = target: YFP C-terminus (YC)-tagged hBMAL1b (human) (UniProt O00327); assay: split reporter; BiFC with YN (YFP 1-173) and YC (YFP 173-238) fusions co-transfected into HeLa cells; fixed 24 h after transfection; confocal microscopy
[2] = target: T1, C-terminal CFP (CC)-tagged hCLOCK (human) (UniProt O15516); assay: split reporter; dual-colour BiFC in HeLa cells: CN-hBmal1b and CC-hClock co-transfected with increasing amounts of YN-hBmal1a; CFP and YFP signals read 24 h after transfection
T1 sequence: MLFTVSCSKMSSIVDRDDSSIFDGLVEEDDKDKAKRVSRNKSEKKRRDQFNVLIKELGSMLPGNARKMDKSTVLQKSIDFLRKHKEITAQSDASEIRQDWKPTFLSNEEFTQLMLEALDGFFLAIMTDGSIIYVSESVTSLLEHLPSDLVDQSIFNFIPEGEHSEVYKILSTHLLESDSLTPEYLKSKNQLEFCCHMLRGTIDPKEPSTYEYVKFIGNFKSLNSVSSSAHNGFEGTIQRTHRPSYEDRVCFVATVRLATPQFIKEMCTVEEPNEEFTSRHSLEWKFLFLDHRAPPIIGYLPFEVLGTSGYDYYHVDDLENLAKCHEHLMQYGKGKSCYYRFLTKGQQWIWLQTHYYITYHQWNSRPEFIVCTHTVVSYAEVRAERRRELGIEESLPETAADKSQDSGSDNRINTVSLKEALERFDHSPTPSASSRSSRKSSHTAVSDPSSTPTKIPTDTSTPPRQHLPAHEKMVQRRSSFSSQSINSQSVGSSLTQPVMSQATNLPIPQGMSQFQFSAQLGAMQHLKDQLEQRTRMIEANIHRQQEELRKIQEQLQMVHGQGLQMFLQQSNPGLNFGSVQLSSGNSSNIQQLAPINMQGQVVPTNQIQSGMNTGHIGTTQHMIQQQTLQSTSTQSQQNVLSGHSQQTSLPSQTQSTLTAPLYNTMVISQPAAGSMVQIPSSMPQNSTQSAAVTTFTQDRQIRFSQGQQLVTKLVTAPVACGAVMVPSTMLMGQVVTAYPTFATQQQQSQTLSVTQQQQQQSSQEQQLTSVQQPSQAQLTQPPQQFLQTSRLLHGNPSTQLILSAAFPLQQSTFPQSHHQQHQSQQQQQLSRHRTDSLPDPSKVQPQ

The chains behind the UniProt entries cited, without tags or fusion partners. Where a name states a change or a piece, a line headed by the entry shows the natural chain unless it says otherwise. A line that says so, or that is headed by a name, gives the form on record, which may keep a tag or linker.
UniProt O00327: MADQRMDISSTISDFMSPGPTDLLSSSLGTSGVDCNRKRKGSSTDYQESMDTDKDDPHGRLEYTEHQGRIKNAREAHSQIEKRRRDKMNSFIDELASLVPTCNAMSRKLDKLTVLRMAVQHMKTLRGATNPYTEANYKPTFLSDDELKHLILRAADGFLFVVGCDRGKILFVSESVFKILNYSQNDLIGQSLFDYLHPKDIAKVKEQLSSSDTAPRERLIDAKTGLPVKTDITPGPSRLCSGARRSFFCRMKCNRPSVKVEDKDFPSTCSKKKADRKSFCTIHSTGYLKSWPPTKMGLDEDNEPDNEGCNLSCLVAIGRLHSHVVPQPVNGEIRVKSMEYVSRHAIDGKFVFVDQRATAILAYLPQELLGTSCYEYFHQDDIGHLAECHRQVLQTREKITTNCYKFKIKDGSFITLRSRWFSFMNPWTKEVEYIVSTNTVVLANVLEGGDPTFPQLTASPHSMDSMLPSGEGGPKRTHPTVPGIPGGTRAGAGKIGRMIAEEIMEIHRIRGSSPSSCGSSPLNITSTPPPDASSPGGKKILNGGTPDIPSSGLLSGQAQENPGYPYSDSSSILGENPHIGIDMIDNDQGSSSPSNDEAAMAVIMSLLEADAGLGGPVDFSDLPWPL
Myc-tagged hBMAL1a (O00327-1, form named): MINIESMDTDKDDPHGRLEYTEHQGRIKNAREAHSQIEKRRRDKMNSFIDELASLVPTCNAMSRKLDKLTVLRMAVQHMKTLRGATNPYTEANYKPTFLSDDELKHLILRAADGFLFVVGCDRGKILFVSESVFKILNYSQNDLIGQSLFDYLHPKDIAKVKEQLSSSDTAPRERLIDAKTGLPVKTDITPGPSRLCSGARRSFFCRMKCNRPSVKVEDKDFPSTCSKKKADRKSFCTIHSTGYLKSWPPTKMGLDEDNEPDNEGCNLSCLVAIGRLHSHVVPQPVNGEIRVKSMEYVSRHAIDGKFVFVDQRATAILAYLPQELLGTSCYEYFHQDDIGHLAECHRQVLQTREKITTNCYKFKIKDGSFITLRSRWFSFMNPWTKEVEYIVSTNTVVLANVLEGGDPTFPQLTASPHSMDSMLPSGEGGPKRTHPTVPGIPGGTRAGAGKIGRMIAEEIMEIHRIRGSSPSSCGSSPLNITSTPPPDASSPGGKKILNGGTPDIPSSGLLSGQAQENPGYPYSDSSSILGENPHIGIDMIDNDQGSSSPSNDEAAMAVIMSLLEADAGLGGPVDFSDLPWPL

[3] = target: T2, YFP N-terminus (YN)-tagged hCLOCK (human) (UniProt O15516); assay: split reporter; BiFC with YN (YFP 1-173) and YC (YFP 173-238) fusions co-transfected into HeLa cells; fixed 24 h after transfection; confocal microscopy
T2 sequence: T1 sequence

[4] = target: T3, endogenous hCLOCK (human (endogenous in HeLa)) (UniProt O15516); assay: co-IP; immunoprecipitation from HeLa lysates: Myc-tagged hBMAL1b as bait, endogenous hCLOCK on the blot, with increasing co-expression of Flag-tagged hBMAL1a; IP buffer 50 mM HEPES pH 7.4, 150 mM NaCl, 1% NP-40, 0.5% Na-deoxycholate, 4 °C
T3 sequence: T1 sequence

[5] = target: Myc-tagged hBMAL1a (human) (UniProt O00327); assay: co-IP; called a pull down assay; Myc-tagged hBMAL1a or hBMAL1b expressed in cells, blot for hCLOCK (Supplementary Fig. S3)
[6] = target: Myc-tagged hBMAL1b (human) (UniProt O00327); assay: as above
[7] = target: Myc-tagged hBMAL1b (human) (UniProt O00327); assay: co-IP; immunoprecipitation from HeLa lysates: Myc-tagged hBMAL1b as bait, endogenous hCLOCK on the blot, with increasing co-expression of Flag-tagged hBMAL1a; IP buffer 50 mM HEPES pH 7.4, 150 mM NaCl, 1% NP-40, 0.5% Na-deoxycholate, 4 °C

Molecule: YFP C-terminus (YC)-tagged hBMAL1b (from UniProt O00327 1-626)
binding [3]: binds

Molecule: Flag-tagged hBMAL1a (from UniProt O00327-1 1-583)
binding [4]: binds

B1: endogenous hCLOCK (protein, UniProt O15516 1-846)
chain: T1 sequence
binding [5]: binds
binding [6]: binds
binding [7]: binds

The next lines start with the values.

binding [1]: binds
binding [2]: binds
Molecule: YN-Flag-fused hBMAL1a (from UniProt O00327-1 1-583)

binding [2]: binds
Molecule: N-terminal CFP (CN)-tagged hBMAL1b (from UniProt O00327 1-626)

binding [3]: binds
Molecule: YFP C-terminus (YC)-tagged hBMAL1a (from UniProt O00327-1 1-583)

Source: article PMC6283877
